According to article PMC12826058:
These are yes or no findings as the source states them, for the method shown. Where a sequence is shown, tags or fusion partners need not be part of it.

Tests used:
[1] = target: AdiY-H34A/H60A variant (N-terminally His6-tagged) (E. coli) (UniProt P33234); assay: SEC; Superdex 75 Increase 10/300 GL, 50 mM sodium phosphate pH 5.8, 300 mM NaCl, 2% glycerol, 2 mM DTT, 2 mM EDTA; 0.5 mL sample at 0.5 mg/mL; calibrated with molecular weight standards; both purified
[2] = target: AdiY-H34A/H60A variant (N-terminally His6-tagged) (E. coli) (UniProt P33234); assay: SEC; Superdex 75 Increase 10/300 GL, 50 mM sodium phosphate pH 7.4, 300 mM NaCl, 2% glycerol, 2 mM DTT, 2 mM EDTA; 0.5 mL sample at 0.5 mg/mL; calibrated with molecular weight standards; both purified

- binding [1]: no binding (tested: 0.5 mg/mL)
- binding [2]: no binding (tested: 0.5 mg/mL)
B1: AdiY-H34A/H60A variant (N-terminally His6-tagged) (protein, UniProt P33234 1-253)
chain: MRICSDQPCIVLLTEKDVWIRVNGKEPISLKANAMALLNCENNIIDVSSLNNTLVAHISADIIKDYLRFLNKDLSQIPVWQRSATPILTLPCLTPDVFRVAAQHSMMPAETESEKERTRALLFTVLSRFLDSKKFVSLMMYMLRNCVSDSVYQIIESDIHKDWNLSMVASCLCLSPSLLKKKLKSENTSYSQIITTCRMRYAVNELMMDGKNISQVSQSCGYNSTSYFISVFKDFYGMTPLHYVSQHRERTVA
